Numbering of substitutions follows the chain as printed.
B1: D(86)A: εPKC mutant wherein D at position 86 of ΨεRACK on εPKC is substituted with an A (protein)
chain: MVVFNGLLKIKICEAVSLKPTAWSLRHAVGPRPATFLLDPYIALNVDDSRIGQTATKQKTNSPAWHDEFVTDVCNGRKIELAVFHAAPIGYDDFVANCTIQFEELLQNGSRHFEDWIDLEPEGRVYVIIDLSGSSGEAPKDNEERVFRERMRPRKRQGAVRRRVHQVNGHKFMATYLRQPTYCSHCRDFIWGVIGKQGYQCQVCTCVVHKRCHELIITKCAGLKKQETPDQVGSQRFSVNMPHKFGIHNYKVPTFCDHCGSLLWGLLRQGLQCKVCKMNVHRRCETNVAPNCGVDARGIAKVLADLGVTPDKITNSGQRRKKLIAGAESPQPASGGSPSEEDRSKSAPTSPCDQEIKELENNIRKALSFDNRGEEHRAASSPDGQLMSPGENGEVRQGQAKRLGLDEFNFIKVLGKGSFGKVMLAELKGKDEVYAVKVLKKDVILQDDDVDCTMTEKRILALARKHPYLTQLYCCFQTKDRLFFVMEYVNGGDLMFQIQRSRKFDEPRSRFYAAEVTSALMFLHQHGVIYRDLKLDNILLDAEGHCKLADFGMCKEGILNGVTTTTFCGTPDYIAPEILQELEYGPSVDWWALGVLMYEMMAGQPPFEADNEDDLFESILHDDVLYPVWLSKEAVSILKAFMTKNPHKRLGCVASQNGEDAIKQHPFFKEIDWVLLEQKKIKPPFKPRIKTKRDVNNFDQDFTREEPVLTLVDEAIVKQINQEEFKGFSYFGEDLMP
B2: D(86)N: εPKC mutant wherein D at position 86 of ΨεRACK in εPKC is substituted with an N (protein)
chain: B1 chain with A86N
B3: Wt: wild type εPKC, human construct (protein)
chain: B1 chain with A86D

Columns and labels:
[1] = Fluorescence recovery after photobleaching (FRAP) of cytoplasmic εPKCs; type: cell-based; details: (F∞−F0)/(Fi−F0), averages of at least 10 cells
Description: CHO cells were grown on glass coverslips, and serum-starved as described in Example 4. For each experiment, cells were transferred to a commercially available metal coverslip holder (Molecular Probes) in which the coverslip formed the bottom of a 1 ml bath. The media was then replaced with extracellular buffer (120 mM NaCl, 5 mM KCl, 1.5 mM CaCl2, 1.5 mM MgCl2, 20 mM HEPES and 30 mM glucose). Cells were stimulated by either PMA (100 nM), or with ATP (1 mM) in extracellular buffer. Fluorescence images of GFP-tagged constructs were obtained using the 488 nm excitation line of a laser scanning confocal microscope (Pascal, Zeiss) and emission was collected through a 505-550 nm band pass filter. Cells were imaged on the stage of an inverted microscope (Axiovert 100M) using a 40× Zeiss Plan-apo oil immersion objective with 1.2 numerical aperture (NA). For dual color imaging of CFP and YFP fusion proteins, a spinning disk Nipkow confocal microscope was used. Cells were viewed using an inverted Olympus IX70 microscope with a 40× oil immersion Olympus objective (1.35NA) and images were acquired with a CCD camera (Hamamatsu) and 2×2 pixel binning. […] Under these conditions, and by placing an iris in the beam path, it was possible to bleach 80% of the YFP fluorescence in 500 ms in an area of the cytosol measuring approximately 35 um2. […] Images were exported as 12 or 16 bit files and changes in fluorescence intensity were measured using MetaMorph® data analysis software (Universal Imaging Corp.). To monitor the translocation of PKC, a small region of interest was selected in the cytosol of each cell and fluorescence intensity values graphed against time after subtraction of background values and normalized so that the initial fluorescence was 100%. […]
Different translocation rates may reflect differences in overall mobility (diffusion) of the εPKCs in cells. Therefore, fluorescence recovery after photobleaching (FRAP) of the cytoplasmic enzyme was measured; mobility of εPKCs was measured by monitoring the time required for the fluorescence to recover in a bleached region. […]

Arg C = details: for susceptibility to degradation by Arg C compared to Wt: insect cell-expressed εPKC, room temperature

Row | Molecule | mobile fraction [1] | susceptibility to degradation by Arg C compared to Wt (Arg C) | time required for the same extent of degradation as D(86)A or Wt (Arg C; Arg C)
1 | B1 | 63±4% | did not alter susceptibility | 
2 | B2 | 64±2.5% | significantly more resistant to proteolysis | twice the time
3 | B3 | 63±2% |  | 

Reference: patent publication US7994133B2, “Isozyme-specific antagonists of protein kinase C” (The Board of Trustees of the Leland Stanford Junior …, priority 2003, dated 2011)
